Patent EP4786451A1, “COMPOUND TARGETING INTEGRIN AND USE THEREOF IN RNAI AGENT” (YUN HO BIO CO., LTD, priority 2023, dated 2025)
Part of at least one peptide drawing is inferred or uncertain, most often the ends. For at least one compound, name, drawing or mass did not settle the structure.

By UniProt entry, the sequences of proteins in these tests, tags left out. Residues count along the entry.
UniProt P06756, 31-992 limits assumed: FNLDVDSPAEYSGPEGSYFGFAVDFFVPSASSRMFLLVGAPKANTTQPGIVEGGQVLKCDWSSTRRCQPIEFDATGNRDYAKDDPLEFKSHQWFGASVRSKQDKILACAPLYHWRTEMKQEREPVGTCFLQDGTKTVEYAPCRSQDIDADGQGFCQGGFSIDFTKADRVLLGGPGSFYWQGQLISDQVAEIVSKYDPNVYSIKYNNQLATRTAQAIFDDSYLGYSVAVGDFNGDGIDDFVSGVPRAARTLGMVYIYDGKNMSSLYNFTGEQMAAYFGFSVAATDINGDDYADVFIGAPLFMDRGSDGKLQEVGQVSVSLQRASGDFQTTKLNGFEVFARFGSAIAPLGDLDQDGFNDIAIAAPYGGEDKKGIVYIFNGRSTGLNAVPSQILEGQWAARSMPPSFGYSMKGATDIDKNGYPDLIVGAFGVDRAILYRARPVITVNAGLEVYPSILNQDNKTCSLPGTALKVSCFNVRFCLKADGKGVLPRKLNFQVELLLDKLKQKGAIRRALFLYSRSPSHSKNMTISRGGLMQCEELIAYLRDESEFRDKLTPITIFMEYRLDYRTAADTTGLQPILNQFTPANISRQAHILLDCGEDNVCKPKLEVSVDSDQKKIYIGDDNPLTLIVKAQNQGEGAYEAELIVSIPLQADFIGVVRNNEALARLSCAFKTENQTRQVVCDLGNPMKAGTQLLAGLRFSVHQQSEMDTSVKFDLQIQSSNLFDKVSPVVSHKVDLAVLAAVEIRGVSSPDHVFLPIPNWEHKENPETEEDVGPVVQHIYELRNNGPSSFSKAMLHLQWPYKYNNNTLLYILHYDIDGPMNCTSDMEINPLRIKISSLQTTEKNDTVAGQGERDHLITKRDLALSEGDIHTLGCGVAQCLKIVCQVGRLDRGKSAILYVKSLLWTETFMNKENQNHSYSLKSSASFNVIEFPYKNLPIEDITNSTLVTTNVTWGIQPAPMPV
UniProt P18564, 22-707 limits assumed: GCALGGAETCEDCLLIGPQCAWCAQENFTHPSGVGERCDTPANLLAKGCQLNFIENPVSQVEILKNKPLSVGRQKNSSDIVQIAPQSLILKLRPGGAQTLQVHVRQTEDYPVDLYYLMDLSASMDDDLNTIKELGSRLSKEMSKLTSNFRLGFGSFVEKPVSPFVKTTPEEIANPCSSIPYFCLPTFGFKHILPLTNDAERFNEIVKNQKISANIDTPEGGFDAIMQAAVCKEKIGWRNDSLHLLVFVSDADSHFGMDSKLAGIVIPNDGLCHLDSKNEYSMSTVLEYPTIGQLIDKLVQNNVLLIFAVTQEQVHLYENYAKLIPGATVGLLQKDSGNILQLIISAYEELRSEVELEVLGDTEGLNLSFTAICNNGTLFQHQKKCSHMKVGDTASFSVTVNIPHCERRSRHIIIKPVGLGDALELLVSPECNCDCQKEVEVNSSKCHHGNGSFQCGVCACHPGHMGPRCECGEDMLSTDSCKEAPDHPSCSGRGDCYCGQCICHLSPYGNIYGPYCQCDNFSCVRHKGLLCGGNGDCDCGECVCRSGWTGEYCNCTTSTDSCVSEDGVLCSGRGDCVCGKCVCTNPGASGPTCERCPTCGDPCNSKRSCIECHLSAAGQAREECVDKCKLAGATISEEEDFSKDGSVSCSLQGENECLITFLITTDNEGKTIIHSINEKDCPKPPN

Biological target: Integrin αvβ6 Receptor (Homo sapiens, UniProt P06756+P18564)
Test: HTRF binding activity to integrin αvβ6 receptor (competition with LAP (TGF-beta 1))
Conditions: for IC50: table of 5FAM-labelled compounds
Description: Reagent Preparation: Assay buffer was prepared.

Row | Structure (SMILES) | IC50 [nM] | Hillslope (fit parameter of the inhibition curve)
1 | Cc1ccnc(NCCCC(=O)N2CCN(C(CC(=O)O)c3ccc(-c4ccc(OCCOCCOCCOCCOCCn5cc(CNC(=O)c6ccc7c(c6)C(=O)OC76c7ccc(O)cc7Oc7cc(O)ccc76)nn5)c5ccccc45)cc3)CC2)c1 (stereo not drawn) [Compound 4-5FAM] | 7.23 | 
2 | Cc1ccnc(NCCCC(=O)NCC(=O)N[C@@H](CC(=O)O)c2ccc(-c3ccc(OCCOCCOCCOCCOCCn4cc(CNC(=O)c5ccc6c(c5)C(=O)OC65c6ccc(O)cc6Oc6cc(O)ccc65)nn4)c4ccccc34)cc2)c1 [Compound 1-5FAM] |  | 11.3
3 | Cc1ccnc(NCCC2CCN(CC(=O)N[C@@H](CC(=O)O)c3ccc(-c4ccc(OCCOCCOCCOCCOCCn5cc(CNC(=O)c6ccc7c(c6)C(=O)OC76c7ccc(O)cc7Oc7cc(O)ccc76)nn5)c5ccccc45)cc3)C2=O)c1 (stereo partly drawn) [Compound 5-5FAM] | 2.66 | 
